Results from EP1394180B1, “Synthetic mimetic molecules of physiological binding molecules” (AplaGen GmbH, priority 2002, dated 2008).
Not every detail of the peptide structures is certain; ends, links or a residue may be inferred. Ends that are not written are not given here.

Tested on: Daudi Zellen
Assay: Cytotoxicity test: LDH release, YT NK cells (effector) incubated with Daudi tumour cells (target) and test peptide
Type: cell-based
Conditions: 16 h, YT:Daudi 1:10, LDH release

Row | Sequence | Zytotoxizität (0,3 µM Testpeptid) | Zytotoxizität (3 µM Testpeptid) | Zytotoxizität (30 µM Testpeptid)
1 | APTSSSTKKTQLQLEHFLLDFQMILNGINN [Sequenz 2, APTSSSTKKT QLQLEHFLLD FQMILNGINN] | 30% | 80% | 10%
2 | APTSSSTKKTQLQLEHFLMKFQMILNGINN [Sequenz 3, APTSSSTKKT QLQLEHFLMK FQMILNGINN] | 0% | 20% | 0%
3 | APTSSSTKKTQLQLEHLLLKLQMILNGINN [Sequenz 1, APTSSSTKKT QLQLEHLLLK LQMILNGINN] | 30% | 30% | 30%
